# In PubChem BioAssay AID1671190 (National Center for Advancing Translational Sciences (NCATS), 2021):
# Protein sequences, listed by entry. Tags and fused reporters are not part of them. Lines headed by an entry give the natural chain unless they say otherwise; changes in a name come on top.
# UniProt P18054: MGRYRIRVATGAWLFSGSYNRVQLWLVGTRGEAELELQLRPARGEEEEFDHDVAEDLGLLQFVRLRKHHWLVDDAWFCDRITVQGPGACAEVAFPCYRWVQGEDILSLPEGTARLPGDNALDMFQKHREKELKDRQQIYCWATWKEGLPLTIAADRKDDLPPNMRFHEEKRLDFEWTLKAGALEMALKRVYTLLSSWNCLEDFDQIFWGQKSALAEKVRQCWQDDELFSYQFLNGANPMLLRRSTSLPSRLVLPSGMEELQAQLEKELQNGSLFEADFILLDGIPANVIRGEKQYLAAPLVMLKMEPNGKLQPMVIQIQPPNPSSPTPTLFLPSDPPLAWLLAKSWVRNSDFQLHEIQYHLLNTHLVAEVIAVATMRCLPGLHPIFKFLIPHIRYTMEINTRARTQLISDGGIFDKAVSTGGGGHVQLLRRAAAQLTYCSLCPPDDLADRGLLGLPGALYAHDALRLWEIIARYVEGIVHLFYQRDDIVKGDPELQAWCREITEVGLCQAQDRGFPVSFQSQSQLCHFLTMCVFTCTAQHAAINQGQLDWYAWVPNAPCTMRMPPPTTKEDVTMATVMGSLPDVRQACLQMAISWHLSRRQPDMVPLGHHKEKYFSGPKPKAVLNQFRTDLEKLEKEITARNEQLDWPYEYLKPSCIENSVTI
# Hit rate of the full screen: of about 580,000 compounds, about 6,100 (1.1%) were called active. Inconclusive results, whose numbers are uncertain, are shown with a selection of clear calls. Calls follow the shape of the dose curve; as a rule, active = well fitted inhibition curve with a large enough effect; inconclusive = small, poorly fitted or top-dose-only effect, or another doubt; inactive = no such curve, though single readings can be large or run the other way. Potencies beside an inconclusive call are fits to weak or partial responses and may not hold up.
# Target: Polyunsaturated fatty acid lipoxygenase ALOX12 (Homo sapiens) (UniProt P18054)
# Experiment: Primary qHTS assay for inhibitors of human arachidonate 12S-lipoxygenase (ALOX12): Round 2
# Settings: purified 12hLO, xylenol orange hydroperoxide absorbance; series mostly up to 108 µM
# Procedure, shortened: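 Hydroperoxide product was detected by ferrous iron/xylenol orange as the 573 to 405 nm absorbance ratio. Arachidonic acid at 40 uM (final) was turned over for 30 min at room temperature by 150 nM human 12hLO, pH 7.0 Hepes buffer, after 15 min compound preincubation.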
# Potency is read from the fitted curve at half-maximal effect.
row,SMILES,Potency
1,COc1cc(C(C#N)N2N=C(c3ccccc3)CC2c2ccccc2)ccc1O (stereo unspecified),inactive
2,O=C(NCCc1ccc(Cl)cc1)c1cc(S(=O)(=O)N2CCCC2)ccc1F,inactive
3,CC(C)Oc1ccc(CCNC(=O)C2CCC(=O)N(Cc3cccc(F)c3)C2)cc1 (stereo unspecified),"inconclusive: 126 µM [inhibitor, partial curve, poor fit]"
4,Clc1cccc(-c2nn3c(-c4ccc5ccccc5n4)nnc3s2)c1,active: 35.5 µM
5,CC(C)NS(=O)(=O)c1cc(C(=O)O)cc(-n2cccn2)c1,"inconclusive: 10 µM [inhibitor, full curve, poor fit]"
6,CCN(CC)S(=O)(=O)c1ccc(OC)c(NC(=O)/C=C/c2ccco2)c1,"inconclusive: 56.2 µM [inhibitor, partial curve, poor fit]"
7,CCN(Cc1ccncc1)C(=O)CC1=C2CCCCC2N(C)C1=O (stereo unspecified),inactive
8,O=C(NC1CCCN(c2cc(-c3ccc(F)cc3)[nH]n2)C1)c1ccc2cc[nH]c2c1 (stereo unspecified),"inconclusive: 15.8 µM [inhibitor, full curve]"
9,O=C(Nc1cccc2ccccc12)O[C@@H]1CO[C@H]2[C@@H]1OC[C@@H]2Nc1nccc(-c2cccc(F)c2)n1,"inconclusive: 25.1 µM [inhibitor, full curve, poor fit]"
10,COc1ccc(NC(=O)CCCCCN2C(=O)c3cccc([N+](=O)[O-])c3C2=O)c(OC)c1,"inconclusive: 25.1 µM [inhibitor, partial curve, poor fit]"
11,Cc1ccc(NC(=O)CSc2sc3c(O)cc(=O)[nH]c3c2C#N)cc1C,"inconclusive: 3.16 µM [inhibitor, full curve, poor fit]"
12,O=C(NC[C@H]1O[C@@H](CO)[C@@H](O)[C@H]1N1CCN(c2cccc(C(F)(F)F)c2)CC1)c1ccccc1,inactive
13,CC(C)n1c(O)c(N=NC(=O)CNC(=O)Cc2ccc(Cl)cc2)c2ccccc21,inactive
14,O=C(c1ccc(OC2CCN(Cc3ccccc3C(F)(F)F)CC2)cc1)N1CCCCC1,"inconclusive: 70.8 µM [inhibitor, partial curve, poor fit]"
15,Cc1ccc(-c2nnc(Nc3cccc(Br)c3)c3ccccc23)cc1S(=O)(=O)N1CCN(C)CC1,inactive
16,COc1ccc(NC(=O)C(C)SCCO)cc1Cl (stereo unspecified),inactive
17,O=C(NCCN1CCN(c2ccccc2)CC1)c1cccn2c(=O)c3ccccc3nc12,inactive
18,O=C1CCC2S/C(=C/Nc3ccc(C(F)(F)F)cc3)C(=O)N12 (stereo unspecified),inactive
19,CC1(C(=O)OCc2cc(=O)n3cc(Br)ccc3n2)CC1(Cl)Cl (stereo unspecified),"inconclusive: 50.1 µM [inhibitor, partial curve, poor fit]"
20,C[C@H](O)c1onc(-c2ccc(F)cc2)c1C(=O)N1CCC1,"inconclusive: 100 µM [inhibitor, partial curve]"
21,CCOC(=O)N1CCC(N2CCN(c3ccccc3)CC2)CC1,"inconclusive: 44.7 µM [inhibitor, partial curve, poor fit]"

row,SMILES,Potency
1,COc1ccc(C(C)=O)cc1CC(=O)Oc1cc(Cl)ccc1Cl,"inconclusive: 141 µM [inhibitor, single point]"
2,Cc1nnc(N2C(=O)C(=O)/C(=C(/O)c3ccc4c(c3)OCCO4)C2c2ccc([N+](=O)[O-])cc2)s1 (stereo unspecified),"inconclusive: 50.1 µM [inhibitor, partial curve, poor fit]"
3,Cc1cc(C)c2nc(C(F)(F)F)nc(NCCCN3CCCC3=O)c2c1,"inconclusive: 141 µM [inhibitor, partial curve, poor fit]"
4,COC(=O)c1cc(OC(=O)c2cccc3ccccc23)cc(C(=O)OC)c1,"inconclusive: 44.7 µM [inhibitor, partial curve, poor fit]"
5,Cn1c(=O)[nH]c(=O)c2c1nc(N1CCNCC1)n2CCCc1ccccc1,inactive
6,C/C(CC(C)C)=N\NS(=O)(=O)c1ccc(C)c([N+](=O)[O-])c1,inactive
7,CSc1ccc(CCNS(=O)(=O)c2cc(-c3cc(C)no3)ccc2C)cc1,"inconclusive: 126 µM [inhibitor, partial curve, poor fit]"
8,Cc1ccc(NC(=S)NNC(=S)NC2CCCCC2)cc1,"inconclusive: 44.7 µM [inhibitor, partial curve, poor fit]"
9,O=C(c1cnco1)N1CC(F)(F)C[C@H]1c1nc(-c2ccncc2)no1,"inconclusive: 17.8 µM [inhibitor, full curve]"
10,COc1ccc(N2C(=O)CN(C3CCCC3)[C@H]3CS(=O)(=O)C[C@H]32)cc1,"inconclusive: 39.8 µM [inhibitor, partial curve, poor fit]"
11,COC(=O)C(NNc1ccccc1)(NC(=O)c1ccc(F)cc1)C(F)(F)F (stereo unspecified),inactive
12,COc1ccccc1CNc1ncnc2onc(-c3ccc(Cl)cc3)c12,"inconclusive: 39.8 µM [inhibitor, partial curve, poor fit]"
13,O=C(O)CN1C(=O)/C(=C\c2cc(Br)ccc2OCc2ccc(Cl)cc2)SC1=S,active: 20 µM
14,Cc1[nH]c2ccccc2c1C1(O)C(=O)N(Cc2ccccc2)c2ccc(Br)cc21 (stereo unspecified),"inconclusive: 11.2 µM [inhibitor, partial curve, poor fit]"
15,O=C(NC1CCCCC1)C1CC=CCC1c1nc2ccccc2s1 (stereo unspecified),"inconclusive: 35.5 µM [inhibitor, partial curve, poor fit]"
16,Cc1[nH]n(-c2ccccc2)c(=O)c1N=Nc1ccc(Cl)cc1,"inconclusive: 7.08 µM [inhibitor, partial curve, poor fit]"
17,COc1cccc(C(=O)COC(=O)c2cc3c(s2)-c2ccccc2OC3)c1,"inconclusive: 79.4 µM [inhibitor, single point]"
18,Cn1c(=O)c2c(nc(Cl)n2CC(=O)c2ccc(Br)cc2)n(C)c1=O,inactive
19,CC(C)(CC(=O)O)CC(=O)N1Cc2[nH]cnc2C[C@H]1C(=O)NC1CCCCC1,inactive
20,CCOc1ccc(C2NC(=O)NC(CN3CCN(C(=O)OC(C)(C)C)CC3)=C2C(=O)OC)cc1 (stereo unspecified),"inconclusive: 35.5 µM [inhibitor, partial curve, poor fit]"

# Rewritten with tabs: part of the list above.
row	SMILES	Potency
17	COc1cccc(C(=O)COC(=O)c2cc3c(s2)-c2ccccc2OC3)c1	inconclusive: 79.4 µM [inhibitor, single point]
18	Cn1c(=O)c2c(nc(Cl)n2CC(=O)c2ccc(Br)cc2)n(C)c1=O	inactive
